Measured values taken from PubChem BioAssay AID720706 (Broad Institute, 2013).
This is one part of the list.

Assay: GFP drop in mixed WT/humanized-ribosome E. coli culture – GFP/RFP fluorescence, OD600, single point, bacterial rRNA inhibitor project, primary screen (AID 720706)
Conditions: E. coli WT GFP vs humanized-ribosome RFP mutants, 24 h; OD600 change: measured here: OD600 growth, DMSO median 0, no signal -100; RFP signal change: measured here: RFP humanized mutant strains, DMSO median 0, no signal -100, concentration not given here

SMILES	OD600 change [%]	RFP signal change [%]
CN(C(=O)Cc1ccc(Cl)c(Cl)c1)C1CCCC[C@@H]1N1CCCC1 (stereo partly drawn)	3.08	-1.12
CCC1=CC2Cc3nc4ccc(Cl)cc4c(N)c3C(C1)C2 (stereo not drawn)	-79.5	-12.7
O=C(O)C(O)c1ccc(N(CCCl)CCCl)cc1.c1ccncc1 (stereo not drawn)	8.63	-0.015
O=[N+]([O-])c1cc([N+](=O)[O-])c(-n2nnc3ccccc32)c([N+](=O)[O-])c1	16.4	-1.02
CCOP(=O)(NC(=NC(C)c1ccccc1)NC(C)c1ccccc1)OCC (stereo not drawn)	3.02	-1.55
Nc1ccc(CCCCOc2ccccc2)cc1.O=[N+]([O-])c1cc([N+](=O)[O-])c(O)c([N+](=O)[O-])c1	-20.1	-5.31
CCOP(=O)(Nc1ccc(C)cn1)OCC	8.5	0.19
O=P1(N(CCCl)CCCl)NCCC(C(F)(F)F)O1 (stereo not drawn)	14.9	-2.12
CN(Cc1cccnc1)C(=O)COc1ccc(Cl)c(Cl)c1.O=[N+]([O-])c1cc([N+](=O)[O-])c(O)c([N+](=O)[O-])c1	-5.14	-0.66
CC(C)(C)C(=O)NC(Sc1ncccn1)C(Cl)(Cl)Cl (stereo not drawn)	5.54	2.61
Cc1cc(C)cc(OP(C)(=O)Nc2ccccn2)c1 (stereo not drawn)	2.74	-4.14
CP(=O)(Nc1cccc(Br)c1)Oc1ccccc1 (stereo not drawn)	-41	-5.2
Cc1ccc(NCCc2c([N+](=O)[O-])cc([N+](=O)[O-])cc2[N+](=O)[O-])cc1	-5.33	3.41
Nc1cccc2c([As](=O)(O)O)cccc12	14.5	30.6
CCCOP(=S)(Nc1nc(N)cc(=O)[nH]1)OCCC	2.95	2.7
CCOP(=O)(Nc1cccc2ccccc12)OCC	1.34	0.943
O=C(OC1CN2CCC1CC2)c1ccc(Cl)cc1 (stereo not drawn)	0.264	1.58

SMILES	OD600 change [%]	RFP signal change [%]
O=[As](O)(O)c1cccnc1	4.24	-3.55
COc1cc(C(=O)NCC2(N3CCOCC3)CCCCC2)cc(Cl)c1OC(C)C	-39.4	-0.685
COc1ccccc1OP(C)(=O)Nc1cccc(Br)c1 (stereo not drawn)	-8.9	-0.963
CS(=O)(=O)c1ccc(Cl)c(NC(=O)COC(=O)C(O)(c2ccccc2)c2ccccc2)c1	-6.7	1.13
O=[As](O)(c1cccc(O)c1)c1cccc(O)c1	3.35	-1.91
Cc1cc(C)cc(OP(C)(=O)Nc2ccc(C)cc2C)c1 (stereo not drawn)	-3.57	11.8
CCOC(=O)c1ccc(NP(C)(=O)Oc2cc(C)cc(C)c2)cc1 (stereo not drawn)	-0.0605	4.64
NC(=O)Nc1ccc([As](=O)(O)O)cc1	29.4	-6.23
N#CCCN(C(=O)COC(=O)C(O)(c1ccccc1)c1ccccc1)c1ccc(F)cc1	4.92	-0.323
CCOP1(=S)c2c(C)nn(CCC#N)c2N=C(c2ccc(F)cc2)N1C (stereo not drawn)	2.42	-0.88
CN(C)C(=O)c1cc([N+](=O)[O-])cc2c1-c1c(cc([N+](=O)[O-])cc1[N+](=O)[O-])C2=O	3.4	-2.56
CN(C(=O)Cc1ccc(Cl)c(Cl)c1)[C@H]1CC[C@@]2(CCCO2)C[C@@H]1N1CCCC1	-1.81	0.893
CCOP1(=S)c2c(C)nn(CCC#N)c2N=C(c2ccccc2F)N1C (stereo not drawn)	3.33	1.6
O=C(O)c1cccc(Nc2c([N+](=O)[O-])cc([N+](=O)[O-])cc2[N+](=O)[O-])c1	6.75	-1.1
O=P(Nc1nccs1)(Oc1ccccc1)Oc1ccccc1	-2.77	0.0265
Nc1ccccc1[As](=O)(O)c1ccccc1	2.48	-1.96
O=C(O)COc1ccc([As](=O)(O)O)cc1[N+](=O)[O-]	12.6	3.1
